Experimental findings from the supplement of paper PMC6690932 are described below.

± gives the standard deviation of the averaged measurements. The list shows a part of the results. Many values rest on one well or one pass, so single values are uncertain.

The test system of this test is HeLa. Description: lysosomal-METRIQ red/green fluorescence ratio relative to DMSO (ratio to DMSO); higher = higher lysosomal activity / lysosomal biogenesis. To be noted: 10 µM; 12 h.
As to `CC(C)(C)c1nc2c3cc[nH]c(=O)c3c3cc(F)ccc3c2[nH]1` [JAK Inhibitor I], the “lysosomal-METRIQ red/green fluorescence ratio” value was 1.31.

Take `CCN(CC)CCNC(=O)c1c(C)[nH]c(/C=C2\C(=O)Nc3ccc(Cl)cc32)c1C`: the “lysosomal-METRIQ red/green fluorescence ratio” value is 3.12.

For `CC(=O)N[C@@H](CSC(=O)[C@]1([C@@H](O)C(C)C)NC(=O)[C@H](C)[C@@H]1O)C(=O)O` [Lactacystin], the “lysosomal-METRIQ red/green fluorescence ratio” value was found to be 0.6.

Consider `CNC(=O)c1ccccc1Sc1ccc2c(/C=C/c3ccccn3)n[nH]c2c1` [Axitinib], for which the “lysosomal-METRIQ red/green fluorescence ratio” value amounted to 0.955.

Turning to `Ic1cccc(CSc2nnc(-c3ccncc3)o2)c1` [GSK-3 inhibitor II], the “lysosomal-METRIQ red/green fluorescence ratio” value stood at 1.2.

For `O=C(Nc1ccc([N+](=O)[O-])cc1O)Nc1ccccc1Br`, the “lysosomal-METRIQ red/green fluorescence ratio” value worked out at 1.

In the case of `CCCCC[C@H](CC(=O)NO)C(=O)N[C@H](C(=O)N1CCC[C@H]1CO)C(C)C` [Actinonin], the “lysosomal-METRIQ red/green fluorescence ratio” value was determined as 1.

For the compound `O=C1C(SCCO)=C(SCCO)C(=O)c2ccccc21`, the “lysosomal-METRIQ red/green fluorescence ratio” value was 0.68.

`COC(=O)CNC(=O)C(=O)OC` [Dimethyloxalylglycine]: the “lysosomal-METRIQ red/green fluorescence ratio” value amounted to 1.17.

For the compound `CN(C)CCCCC(=O)Nc1ccc(NC(=S)NC(=O)c2ccc(C(C)(C)C)cc2)cc1` [Tenovin-6], the “lysosomal-METRIQ red/green fluorescence ratio” value was 0.818.

For the compound `CC(ONC(=O)c1cc(C(F)(F)F)cc(C(F)(F)F)c1)C(=O)Nc1ccc(Cl)cc1` (stereo not given), the “lysosomal-METRIQ red/green fluorescence ratio” value came to 1.09.

Consider `C=CC[C@@H]1/C=C(\C)C[C@H](C)C[C@H](OC)[C@H]2O[C@@](O)(C(=O)C(=O)N3CCCC[C@H]3C(=O)O[C@H](/C(C)=C/[C@@H]3CC[C@@H](O)[C@H](OC)C3)[C@H](C)[C@@H](O)CC1=O)[C@H](C)C[C@@H]2OC`, for which the “lysosomal-METRIQ red/green fluorescence ratio” value was determined as 1.07.

As to `Cc1nc2sccn2c(=O)c1CCN1CCC(=C(c2ccccc2)c2ccc(F)cc2)CC1`, the “lysosomal-METRIQ red/green fluorescence ratio” value was determined as 1.04.

Take `COc1cc(/C=C(\C#N)C(N)=O)cc(CSc2nc3ccccc3s2)c1O`: the “lysosomal-METRIQ red/green fluorescence ratio” value turned out to be 1.02 ± 0.12.

Turning to `O=c1oc2c(O)c(O)cc3c(=O)oc4c(O)c(O)cc1c4c23` [Ellagic acid], the “lysosomal-METRIQ red/green fluorescence ratio” value is 1.

On to `COc1ccc(COc2ccc(Cc3cnc(N)nc3N)cc2OC)cc1` [cFMS Receptor Tyrosine Kinase Inhibitor], for which the “lysosomal-METRIQ red/green fluorescence ratio” value is 0.875.

Take `CO[C@@H]1[C@H](OC(=O)/C=C/C=C/C=C/C=C/C(=O)O)CC[C@]2(CO2)[C@H]1[C@@]1(C)O[C@@H]1CC=C(C)C` [Fumagillin]: the “lysosomal-METRIQ red/green fluorescence ratio” value was 1.

For the compound `O=C(Nc1cccc(Nc2nccc(Nc3cccc(C(F)(F)F)c3)n2)c1)C1CC1` [Aurora kinase inhibitor III], the “lysosomal-METRIQ red/green fluorescence ratio” value was 1.18.

Regarding `COc1ccc(C2=N[C@@H](c3ccc(Cl)cc3)[C@@H](c3ccc(Cl)cc3)N2C(=O)N2CCNC(=O)C2)c(OC(C)C)c1` [Nutlin-3], the “lysosomal-METRIQ red/green fluorescence ratio” value was found to be 1.17.

Consider `Nc1nc(Nc2ccc(S(N)(=O)=O)cc2)nn1C(=S)Nc1c(F)cccc1F` [Cdk1/2 inhibitor III], for which the “lysosomal-METRIQ red/green fluorescence ratio” value came out at 1.68.

Consider `CC(C)CC(=O)N[C@H](C(=O)N[C@H](C(=O)N[C@@H](CC(C)C)[C@@H](O)CC(=O)N[C@@H](C)C(=O)N[C@@H](CC(C)C)[C@@H](O)CC(=O)O)C(C)C)C(C)C` [Pepstatin A], for which the “lysosomal-METRIQ red/green fluorescence ratio” value was determined as 1.

In the case of `CCOC(=O)C1=C(N)Oc2ccc(Br)cc2C1C(C#N)C(=O)OCC` (stereo not given), the “lysosomal-METRIQ red/green fluorescence ratio” value was determined as 0.96.

Regarding `CN(C)S(=O)(=O)c1ccc2c(c1)/C(=C/c1cc3c([nH]1)CCCC3)C(=O)N2`, the “lysosomal-METRIQ red/green fluorescence ratio” value turned out to be 2.5.

As for `C=CCNC1=C2C[C@@H](C)C[C@H](OC)[C@H](O)[C@@H](C)/C=C(\C)[C@H](OC(N)=O)[C@@H](OC)/C=C\C=C(/C)C(=O)NC(=CC1=O)C2=O`, the “lysosomal-METRIQ red/green fluorescence ratio” value came out at 0.867.

Turning to `Cn1c(=O)c2nc[nH]c2n(C)c1=O` [Theophylline], the “lysosomal-METRIQ red/green fluorescence ratio” value was 1.05.
